Experiment [1] deals with T1, IRF3 (interferon-regulatory factor 3) (mouse (endogenous in RAW264.7)), P70671.
T1 chain: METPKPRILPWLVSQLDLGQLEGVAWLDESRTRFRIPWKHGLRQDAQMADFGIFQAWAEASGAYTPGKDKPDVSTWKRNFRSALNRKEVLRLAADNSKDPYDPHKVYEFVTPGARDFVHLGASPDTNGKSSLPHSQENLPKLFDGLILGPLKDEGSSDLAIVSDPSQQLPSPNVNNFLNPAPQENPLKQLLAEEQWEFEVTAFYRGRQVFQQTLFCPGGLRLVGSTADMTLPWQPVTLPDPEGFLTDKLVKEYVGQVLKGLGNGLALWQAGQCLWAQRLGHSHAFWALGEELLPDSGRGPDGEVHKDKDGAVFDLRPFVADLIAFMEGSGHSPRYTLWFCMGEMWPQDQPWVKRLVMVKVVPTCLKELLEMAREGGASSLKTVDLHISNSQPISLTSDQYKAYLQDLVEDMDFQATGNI
Kind of experiment: native gel or EMSA; native PAGE of RAW cell lysates (10 μg of protein), no SDS or reducing agent, 1% sodium deoxycholate in the cathode chamber, immunoblot with an antibody to all forms of IRF3; cells stimulated with poly(I:C) (10 μg/ml) or LPS (100 ng/ml), without or with 1.0 μM BI-2536 or 1.0 μM JQ1. The conditions noted are these: remark: other sources report otherwise. (Mobility shift assays separate free from complexed probe on a gel.)

The target in experiment [2] is IRF3 (interferon-regulatory factor 3) (mouse (endogenous in RAW264.7)) (UniProt P70671). Put plainly: condition: only cells incubated with 2.0 μM of the TBK1 inhibitor MRT67307; native gel or EMSA; as a1, but cells incubated for 1 h with 2.0 μM of the TBK1 inhibitor MRT67307 before stimulation with poly(I:C) or LPS.

These are yes or no findings as the source states them, for the method shown. Some results given as binding are weak or reduced against the parent protein; the word gives no strength.

B1: IRF3 (interferon-regulatory factor 3), P70671 1-419 (protein)
chain: METPKPRILPWLVSQLDLGQLEGVAWLDESRTRFRIPWKHGLRQDAQMADFGIFQAWAEASGAYTPGKDKPDVSTWKRNFRSALNRKEVLRLAADNSKDPYDPHKVYEFVTPGARDFVHLGASPDTNGKSSLPHSQENLPKLFDGLILGPLKDEGSSDLAIVSDPSQQLPSPNVNNFLNPAPQENPLKQLLAEEQWEFEVTAFYRGRQVFQQTLFCPGGLRLVGSTADMTLPWQPVTLPDPEGFLTDKLVKEYVGQVLKGLGNGLALWQAGQCLWAQRLGHSHAFWALGEELLPDSGRGPDGEVHKDKDGAVFDLRPFVADLIAFMEGSGHSPRYTLWFCMGEMWPQDQPWVKRLVMVKVVPTCLKELLEMAREGGASSLKTVDLHISNSQPISLTSDQYKAYLQDLVEDMDFQATGNI
B1: in experiment [1], the binding result is reported as “binds”.

B2: IRF3 (interferon-regulatory factor 3) (protein, UniProt P70671 1-419)
chain: METPKPRILPWLVSQLDLGQLEGVAWLDESRTRFRIPWKHGLRQDAQMADFGIFQAWAEASGAYTPGKDKPDVSTWKRNFRSALNRKEVLRLAADNSKDPYDPHKVYEFVTPGARDFVHLGASPDTNGKSSLPHSQENLPKLFDGLILGPLKDEGSSDLAIVSDPSQQLPSPNVNNFLNPAPQENPLKQLLAEEQWEFEVTAFYRGRQVFQQTLFCPGGLRLVGSTADMTLPWQPVTLPDPEGFLTDKLVKEYVGQVLKGLGNGLALWQAGQCLWAQRLGHSHAFWALGEELLPDSGRGPDGEVHKDKDGAVFDLRPFVADLIAFMEGSGHSPRYTLWFCMGEMWPQDQPWVKRLVMVKVVPTCLKELLEMAREGGASSLKTVDLHISNSQPISLTSDQYKAYLQDLVEDMDFQATGNI
With B2, the binding entry in experiment [2] was “no binding”.

Values taken from publication PMC4613535.
